± gives the standard deviation of the averaged measurements. The list shows a part of the results.
Compound: Nc1nc2c(ncn2[C@@H]2O[C@H](COP(=O)(O)OP(=O)(O)OP(=O)(O)O)[C@@H](O)[C@H]2O)c(=O)[nH]1 [guanosine triphosphate]
Assay: NP40-soluble protein abundance relative to vehicle (solubility fold change) (ratio); higher = more soluble protein in presence of GTP
Outline: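 In three independent experiments, Jurkat crude lysate made by Dounce homogenisation was treated for 10 min at room temperature and then 3 min at 37 °C with eight concentrations ranging from 0.1 to 10 mM. It was then solubilised with 0.8% NP40 plus benzonase for 60 min at 4 °C and ultracentrifuged. The supernatant was TMT-labelled for LC-MS/MS, and each value is the fold change against the detergent-processed vehicle for the same replicate, using vsn-normalised intensities.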

The chains behind the UniProt entries cited, without tags or fusion partners. Where a name states a change or a piece, a line headed by the entry shows the natural chain unless it says otherwise.
UniProt P20248, whole entry: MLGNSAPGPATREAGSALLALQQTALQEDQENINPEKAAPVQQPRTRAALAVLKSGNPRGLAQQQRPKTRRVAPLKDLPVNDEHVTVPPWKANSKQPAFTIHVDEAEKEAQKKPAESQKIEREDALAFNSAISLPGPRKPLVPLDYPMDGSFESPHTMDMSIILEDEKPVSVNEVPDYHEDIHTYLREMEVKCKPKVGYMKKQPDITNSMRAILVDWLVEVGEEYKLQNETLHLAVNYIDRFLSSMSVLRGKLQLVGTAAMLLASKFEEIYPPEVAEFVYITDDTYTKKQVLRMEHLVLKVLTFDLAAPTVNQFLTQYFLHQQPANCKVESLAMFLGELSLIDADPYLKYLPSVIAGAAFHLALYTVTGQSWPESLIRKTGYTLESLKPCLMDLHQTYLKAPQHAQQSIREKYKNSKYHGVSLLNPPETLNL
UniProt P07305, whole entry: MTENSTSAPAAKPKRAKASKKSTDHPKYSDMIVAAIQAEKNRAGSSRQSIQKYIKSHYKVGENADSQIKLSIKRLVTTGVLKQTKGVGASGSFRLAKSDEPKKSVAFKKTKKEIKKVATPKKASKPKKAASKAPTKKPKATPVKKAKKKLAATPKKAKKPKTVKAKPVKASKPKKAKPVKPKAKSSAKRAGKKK
UniProt P09471, whole entry, looked up: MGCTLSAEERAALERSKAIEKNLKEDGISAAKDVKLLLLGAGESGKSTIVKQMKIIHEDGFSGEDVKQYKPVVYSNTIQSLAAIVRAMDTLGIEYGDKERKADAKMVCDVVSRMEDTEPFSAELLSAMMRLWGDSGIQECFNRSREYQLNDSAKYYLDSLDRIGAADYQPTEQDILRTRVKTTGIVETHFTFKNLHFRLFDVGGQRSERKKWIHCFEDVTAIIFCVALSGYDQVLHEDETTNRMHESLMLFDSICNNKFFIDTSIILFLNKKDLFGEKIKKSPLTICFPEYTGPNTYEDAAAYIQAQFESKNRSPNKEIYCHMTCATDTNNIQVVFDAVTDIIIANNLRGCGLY
UniProt P08236: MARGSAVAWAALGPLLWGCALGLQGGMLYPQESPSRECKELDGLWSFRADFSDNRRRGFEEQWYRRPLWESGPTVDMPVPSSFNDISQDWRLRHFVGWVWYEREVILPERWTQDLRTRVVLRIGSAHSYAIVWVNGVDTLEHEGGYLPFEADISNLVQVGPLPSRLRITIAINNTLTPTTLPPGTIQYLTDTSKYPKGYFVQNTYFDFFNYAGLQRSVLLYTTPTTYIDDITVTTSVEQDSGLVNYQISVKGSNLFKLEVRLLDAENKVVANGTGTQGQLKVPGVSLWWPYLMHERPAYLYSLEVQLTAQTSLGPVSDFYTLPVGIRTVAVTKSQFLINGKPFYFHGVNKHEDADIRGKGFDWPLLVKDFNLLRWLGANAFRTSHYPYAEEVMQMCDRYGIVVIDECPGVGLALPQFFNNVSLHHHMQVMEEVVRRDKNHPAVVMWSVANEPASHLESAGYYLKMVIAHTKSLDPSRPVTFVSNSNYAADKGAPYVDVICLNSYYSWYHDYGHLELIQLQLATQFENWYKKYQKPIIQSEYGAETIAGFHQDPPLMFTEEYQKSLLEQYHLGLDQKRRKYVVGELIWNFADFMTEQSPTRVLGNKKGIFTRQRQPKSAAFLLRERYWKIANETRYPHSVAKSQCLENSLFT
UniProt P22626: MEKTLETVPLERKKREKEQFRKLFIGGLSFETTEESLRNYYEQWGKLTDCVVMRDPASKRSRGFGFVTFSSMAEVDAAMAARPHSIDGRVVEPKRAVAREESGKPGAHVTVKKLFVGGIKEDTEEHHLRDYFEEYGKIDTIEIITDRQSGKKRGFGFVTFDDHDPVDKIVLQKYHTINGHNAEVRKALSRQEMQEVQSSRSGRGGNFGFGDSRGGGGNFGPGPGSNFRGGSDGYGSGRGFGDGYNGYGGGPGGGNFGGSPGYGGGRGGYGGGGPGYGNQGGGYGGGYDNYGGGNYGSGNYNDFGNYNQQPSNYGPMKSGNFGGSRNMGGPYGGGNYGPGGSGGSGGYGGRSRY
UniProt P26358: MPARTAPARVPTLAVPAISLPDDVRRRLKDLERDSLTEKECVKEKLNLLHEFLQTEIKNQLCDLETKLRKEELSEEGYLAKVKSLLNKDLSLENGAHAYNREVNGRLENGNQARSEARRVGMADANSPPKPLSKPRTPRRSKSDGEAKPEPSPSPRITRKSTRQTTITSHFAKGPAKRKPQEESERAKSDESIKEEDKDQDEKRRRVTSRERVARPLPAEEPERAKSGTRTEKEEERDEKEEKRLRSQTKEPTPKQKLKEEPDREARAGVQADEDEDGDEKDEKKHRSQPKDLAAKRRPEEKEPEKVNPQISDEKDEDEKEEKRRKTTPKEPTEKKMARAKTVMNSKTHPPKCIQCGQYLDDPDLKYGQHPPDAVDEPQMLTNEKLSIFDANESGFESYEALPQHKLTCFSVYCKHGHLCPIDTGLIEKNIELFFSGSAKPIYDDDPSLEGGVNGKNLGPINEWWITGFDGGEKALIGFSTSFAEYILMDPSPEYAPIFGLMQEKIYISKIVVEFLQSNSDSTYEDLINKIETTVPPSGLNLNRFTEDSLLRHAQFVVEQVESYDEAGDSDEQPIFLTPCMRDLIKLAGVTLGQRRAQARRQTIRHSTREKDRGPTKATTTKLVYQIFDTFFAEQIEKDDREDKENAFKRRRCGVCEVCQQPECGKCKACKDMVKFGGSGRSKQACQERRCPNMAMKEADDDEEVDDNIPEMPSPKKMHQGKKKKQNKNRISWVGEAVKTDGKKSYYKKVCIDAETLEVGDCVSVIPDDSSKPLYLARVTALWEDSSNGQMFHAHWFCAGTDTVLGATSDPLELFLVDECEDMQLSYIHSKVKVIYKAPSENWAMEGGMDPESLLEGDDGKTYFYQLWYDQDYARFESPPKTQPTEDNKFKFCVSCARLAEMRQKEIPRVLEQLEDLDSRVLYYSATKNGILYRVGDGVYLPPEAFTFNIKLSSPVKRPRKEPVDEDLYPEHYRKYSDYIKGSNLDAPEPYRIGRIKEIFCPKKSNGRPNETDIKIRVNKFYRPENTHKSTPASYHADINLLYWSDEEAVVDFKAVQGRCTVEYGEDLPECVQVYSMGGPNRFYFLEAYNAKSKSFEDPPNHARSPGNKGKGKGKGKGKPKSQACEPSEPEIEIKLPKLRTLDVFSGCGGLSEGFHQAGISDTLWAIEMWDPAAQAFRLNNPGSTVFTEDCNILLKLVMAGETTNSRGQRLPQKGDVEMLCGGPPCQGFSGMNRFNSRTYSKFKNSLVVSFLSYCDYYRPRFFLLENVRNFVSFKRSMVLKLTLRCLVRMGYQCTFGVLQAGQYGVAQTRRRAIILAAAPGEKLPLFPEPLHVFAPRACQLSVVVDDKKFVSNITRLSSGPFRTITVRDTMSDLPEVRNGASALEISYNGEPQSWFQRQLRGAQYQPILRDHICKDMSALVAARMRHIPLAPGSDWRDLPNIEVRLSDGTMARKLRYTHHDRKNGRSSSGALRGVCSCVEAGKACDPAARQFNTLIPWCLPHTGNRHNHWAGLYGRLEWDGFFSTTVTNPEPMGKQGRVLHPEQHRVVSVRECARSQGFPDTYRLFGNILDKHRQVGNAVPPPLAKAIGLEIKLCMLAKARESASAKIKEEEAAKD
UniProt P08758: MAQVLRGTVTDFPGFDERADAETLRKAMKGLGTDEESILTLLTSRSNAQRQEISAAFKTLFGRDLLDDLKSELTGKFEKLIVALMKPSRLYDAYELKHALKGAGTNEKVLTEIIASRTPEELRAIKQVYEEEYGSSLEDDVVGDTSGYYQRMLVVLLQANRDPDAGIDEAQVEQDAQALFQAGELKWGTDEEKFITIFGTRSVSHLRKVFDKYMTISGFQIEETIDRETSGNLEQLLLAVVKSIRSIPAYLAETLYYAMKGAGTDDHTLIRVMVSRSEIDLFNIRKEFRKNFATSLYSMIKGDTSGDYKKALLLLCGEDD
UniProt P26368, whole entry: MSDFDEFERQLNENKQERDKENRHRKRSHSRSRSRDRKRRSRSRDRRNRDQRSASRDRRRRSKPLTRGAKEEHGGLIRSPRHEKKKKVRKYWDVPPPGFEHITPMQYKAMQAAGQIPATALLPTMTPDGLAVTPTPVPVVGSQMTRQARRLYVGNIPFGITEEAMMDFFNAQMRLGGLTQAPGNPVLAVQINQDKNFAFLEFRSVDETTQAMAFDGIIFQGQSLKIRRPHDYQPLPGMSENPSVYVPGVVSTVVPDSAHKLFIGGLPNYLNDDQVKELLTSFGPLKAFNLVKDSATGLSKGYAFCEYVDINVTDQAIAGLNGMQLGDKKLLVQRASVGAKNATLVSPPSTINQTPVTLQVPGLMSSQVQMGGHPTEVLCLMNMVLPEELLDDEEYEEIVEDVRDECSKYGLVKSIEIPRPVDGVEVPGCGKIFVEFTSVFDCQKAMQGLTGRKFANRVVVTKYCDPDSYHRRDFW
UniProt P07237: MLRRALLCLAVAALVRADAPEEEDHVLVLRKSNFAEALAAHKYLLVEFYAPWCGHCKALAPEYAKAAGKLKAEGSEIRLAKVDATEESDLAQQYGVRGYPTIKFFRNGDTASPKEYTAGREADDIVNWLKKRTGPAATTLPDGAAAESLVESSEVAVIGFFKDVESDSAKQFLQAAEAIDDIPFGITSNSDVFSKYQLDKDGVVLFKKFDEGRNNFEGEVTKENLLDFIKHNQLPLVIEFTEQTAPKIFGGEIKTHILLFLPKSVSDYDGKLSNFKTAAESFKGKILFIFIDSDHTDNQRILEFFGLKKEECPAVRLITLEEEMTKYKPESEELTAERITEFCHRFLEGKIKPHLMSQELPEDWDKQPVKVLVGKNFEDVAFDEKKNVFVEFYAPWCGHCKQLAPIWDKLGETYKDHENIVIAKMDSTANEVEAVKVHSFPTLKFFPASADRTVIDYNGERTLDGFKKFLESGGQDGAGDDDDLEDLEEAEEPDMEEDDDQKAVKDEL
UniProt P26641, whole entry: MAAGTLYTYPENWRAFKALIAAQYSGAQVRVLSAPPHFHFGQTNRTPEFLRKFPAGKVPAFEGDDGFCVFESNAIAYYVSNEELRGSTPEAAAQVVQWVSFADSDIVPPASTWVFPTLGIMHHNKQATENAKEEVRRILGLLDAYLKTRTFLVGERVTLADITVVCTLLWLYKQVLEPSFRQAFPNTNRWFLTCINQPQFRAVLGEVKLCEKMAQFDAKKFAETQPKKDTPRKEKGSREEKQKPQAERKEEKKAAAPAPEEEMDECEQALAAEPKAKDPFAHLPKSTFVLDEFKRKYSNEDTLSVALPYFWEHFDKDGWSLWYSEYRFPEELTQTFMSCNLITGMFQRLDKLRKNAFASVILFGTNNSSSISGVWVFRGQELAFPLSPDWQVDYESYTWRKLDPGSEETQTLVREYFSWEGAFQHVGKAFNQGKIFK
UniProt P11182, whole entry: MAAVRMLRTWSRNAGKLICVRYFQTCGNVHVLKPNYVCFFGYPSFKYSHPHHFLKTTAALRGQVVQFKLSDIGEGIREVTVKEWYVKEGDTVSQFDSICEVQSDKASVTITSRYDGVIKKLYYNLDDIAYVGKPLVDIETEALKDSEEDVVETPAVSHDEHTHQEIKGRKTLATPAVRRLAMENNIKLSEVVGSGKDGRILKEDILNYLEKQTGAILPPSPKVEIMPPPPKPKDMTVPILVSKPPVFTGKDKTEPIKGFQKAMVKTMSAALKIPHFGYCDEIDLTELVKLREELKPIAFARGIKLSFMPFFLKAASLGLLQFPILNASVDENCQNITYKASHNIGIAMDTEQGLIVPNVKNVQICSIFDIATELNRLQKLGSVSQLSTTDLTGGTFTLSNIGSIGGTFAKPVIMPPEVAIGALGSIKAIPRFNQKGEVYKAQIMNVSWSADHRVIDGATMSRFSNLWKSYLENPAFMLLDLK
UniProt P25789: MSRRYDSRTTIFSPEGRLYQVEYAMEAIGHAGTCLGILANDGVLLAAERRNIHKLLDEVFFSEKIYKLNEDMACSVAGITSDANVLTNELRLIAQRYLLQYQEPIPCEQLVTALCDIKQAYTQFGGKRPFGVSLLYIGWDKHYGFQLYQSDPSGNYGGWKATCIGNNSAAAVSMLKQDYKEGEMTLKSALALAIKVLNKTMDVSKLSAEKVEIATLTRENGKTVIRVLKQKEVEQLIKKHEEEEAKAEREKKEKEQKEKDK
UniProt P14868: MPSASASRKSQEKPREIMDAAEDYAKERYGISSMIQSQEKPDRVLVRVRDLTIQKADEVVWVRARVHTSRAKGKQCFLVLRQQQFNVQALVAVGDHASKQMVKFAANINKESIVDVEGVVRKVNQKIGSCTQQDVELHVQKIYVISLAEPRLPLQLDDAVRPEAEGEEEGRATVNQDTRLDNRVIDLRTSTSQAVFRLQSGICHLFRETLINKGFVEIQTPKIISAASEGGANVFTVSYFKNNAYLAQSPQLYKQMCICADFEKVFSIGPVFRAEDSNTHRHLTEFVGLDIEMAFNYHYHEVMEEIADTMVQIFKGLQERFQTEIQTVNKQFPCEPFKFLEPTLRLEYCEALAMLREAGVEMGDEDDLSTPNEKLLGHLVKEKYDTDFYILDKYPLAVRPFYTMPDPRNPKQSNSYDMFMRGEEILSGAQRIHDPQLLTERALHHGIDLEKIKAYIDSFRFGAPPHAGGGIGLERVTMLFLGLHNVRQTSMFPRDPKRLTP

Target | NP40-soluble protein abundance (concentration: 0.1mM) | NP40-soluble protein abundance (concentration: 0.5mM) | NP40-soluble protein abundance (concentration: 1mM) | NP40-soluble protein abundance (concentration: 2mM) | NP40-soluble protein abundance (concentration: 4mM) | NP40-soluble protein abundance (concentration: 6mM) | NP40-soluble protein abundance (concentration: 8mM) | NP40-soluble protein abundance (concentration: 10mM)
CCNA2 (UniProt P20248) | 0.924 ± 0.078 | 0.935 ± 0.12 | 0.987 ± 0.11 | 0.959 ± 0.15 | 0.97 ± 0.13 | 0.987 ± 0.15 | 0.998 ± 0.11 | 1.01 ± 0.14
H1F0 (UniProt P07305) | 0.928 ± 0.093 | 0.872 ± 0.11 | 0.982 ± 0.11 | 1.13 ± 0.23 | 0.956 ± 0.085 | 0.855 ± 0.15 | 0.842 ± 0.25 | 1.21 ± 0.23
UniProt P25054 and related entries | 1.07 ± 0.038 | 1.083 ± 0.007 | 1.16 ± 0.1 | 1.14 ± 0.12 | 1.07 ± 0.086 | 1.12 ± 0.12 | 1.147 ± 0.0081 | 1.15 ± 0.062
HSP90AB1 (UniProt P08238) | 0.939 ± 0.065 | 0.968 ± 0.071 | 0.879 ± 0.086 | 0.887 ± 0.064 | 0.898 ± 0.068 | 0.858 ± 0.076 | 0.827 ± 0.092 | 0.846 ± 0.05
UniProt P25098 | 1.01 ± 0.031 | 1.01 ± 0.024 | 0.931 ± 0.028 | 0.924 ± 0.016 | 0.915 ± 0.047 | 0.909 ± 0.044 | 0.89 ± 0.038 | 0.874 ± 0.063
UniProt P14324-2 | 1.01 ± 0.027 | 0.973 ± 0.03 | 0.925 ± 0.026 | 0.875 ± 0.038 | 0.862 ± 0.022 | 0.872 ± 0.022 | 0.855 ± 0.068 | 0.798 ± 0.053
UniProt P09471-2 | 1.02 ± 0.11 | 1.05 ± 0.05 | 0.945 ± 0.13 | 1.01 ± 0.085 | 0.9 ± 0.047 | 0.973 ± 0.035 | 0.883 ± 0.12 | 0.914 ± 0.066
UniProt P08236 and related entries | 1.1 ± 0.051 | 1.05 ± 0.1 | 1 ± 0.044 | 1.05 ± 0.043 | 0.997 ± 0.096 | 0.979 ± 0.087 | 1 ± 0.059 | 0.99 ± 0.11
HNRNPA2B1 (UniProt P22626) | 1.02 ± 0.038 | 1.17 ± 0.15 | 1.26 ± 0.25 | 1.39 ± 0.33 | 1.45 ± 0.44 | 1.46 ± 0.42 | 1.5 ± 0.47 | 1.46 ± 0.45
UniProt P26358 and related entries | 1 ± 0.024 | 1.03 ± 0.02 | 0.97 ± 0.034 | 0.967 ± 0.031 | 0.961 ± 0.027 | 0.962 ± 0.026 | 0.974 ± 0.03 | 0.955 ± 0.033
TFE3 (UniProt P19532) | 1.04 ± 0.046 | 0.9136 ± 0.0012 | 1.07 ± 0.015 | 1.03 ± 0.035 | 1.01 ± 0.036 | 1.01 ± 0.011 | 0.899 ± 0.16 | 1.07 ± 0.054
UniProt P16284 and related entries | 0.93 ± 0.077 | 0.896 ± 0.074 | 0.935 ± 0.071 | 0.905 ± 0.12 | 0.897 ± 0.1 | 0.89 ± 0.097 | 0.899 ± 0.074 | 0.927 ± 0.09
NDUFB7 (UniProt P17568) | 1.07 ± 0.17 | 1.15 ± 0.12 | 1.16 ± 0.14 | 1.19 ± 0.17 | 1.3 ± 0.28 | 1.47 ± 0.26 | 1.54 ± 0.056 | 1.72 ± 0.34
UniProt P19838 and related entries | 1.01 ± 0.041 | 1.04 ± 0.033 | 0.99 ± 0.027 | 0.977 ± 0.031 | 0.943 ± 0.018 | 0.954 ± 0.04 | 0.955 ± 0.0048 | 0.929 ± 0.026
TUBG1 (UniProt P23258) | 1.08 ± 0.056 | 1.12 ± 0.1 | 1.17 ± 0.17 | 1.28 ± 0.21 | 1.33 ± 0.24 | 1.32 ± 0.25 | 1.28 ± 0.19 | 1.27 ± 0.21
RAB3A (UniProt P20336) | 0.98 ± 0.12 | 0.896 ± 0.087 | 0.934 ± 0.12 | 0.873 ± 0.12 | 0.962 ± 0.14 | 0.872 ± 0.12 | 0.917 ± 0.14 | 0.863 ± 0.15
UniProt P10619 and related entries | 0.9555 ± 0.0072 | 0.891 ± 0.054 | 0.984 ± 0.019 | 0.904 ± 0.0098 | 0.928 ± 0.031 | 0.908 ± 0.025 | 0.884 ± 0.076 | 0.851 ± 0.022
SLC25A6 (UniProt P12236) | 1.03 ± 0.16 | 0.933 ± 0.077 | 0.966 ± 0.14 | 0.962 ± 0.11 | 1.12 ± 0.25 | 0.97 ± 0.13 | 1.02 ± 0.17 | 0.963 ± 0.085
UniProt P18206 and related entries | 0.973 ± 0.036 | 0.951 ± 0.037 | 0.956 ± 0.03 | 0.943 ± 0.065 | 0.949 ± 0.061 | 0.936 ± 0.05 | 0.962 ± 0.02 | 0.938 ± 0.041
ANXA5 (UniProt P08758) | 0.882 ± 0.07 | 0.908 ± 0.054 | 0.878 ± 0.077 | 0.854 ± 0.076 | 0.819 ± 0.073 | 0.843 ± 0.089 | 0.794 ± 0.081 | 0.809 ± 0.085
UniProt P26368 and related entries | 1.21 ± 0.06 | 1.64 ± 0.23 | 1.67 ± 0.25 | 1.69 ± 0.25 | 1.7 ± 0.29 | 1.75 ± 0.25 | 1.73 ± 0.29 | 1.71 ± 0.26
UniProt P10244 and related entries | 1.11 ± 0.17 | 1.2 ± 0.14 | 1.24 ± 0.2 | 1.21 ± 0.013 | 1.24 ± 0.14 | 1.27 ± 0.24 | 1.36 ± 0.27 | 1.35 ± 0.22
P4HB (UniProt P07237) | 0.855 ± 0.1 | 0.976 ± 0.11 | 0.834 ± 0.08 | 0.923 ± 0.18 | 0.89 ± 0.17 | 0.795 ± 0.054 | 0.866 ± 0.054 | 0.775 ± 0.071
UniProt P26641 and related entries | 1.01 ± 0.046 | 1.08 ± 0.055 | 1.03 ± 0.06 | 1 ± 0.07 | 1 ± 0.045 | 1.03 ± 0.08 | 1.02 ± 0.082 | 0.969 ± 0.081
DBT (UniProt P11182) | 1.09 ± 0.071 | 1.16 ± 0.13 | 1.24 ± 0.14 | 1.39 ± 0.24 | 1.43 ± 0.24 | 1.36 ± 0.23 | 1.37 ± 0.31 | 1.35 ± 0.29
UniProt P23610 | 0.94 ± 0.011 | 0.906 ± 0.053 | 1.03 ± 0.055 | 1.05 ± 0.027 | 1.06 ± 0.04 | 1.04 ± 0.059 | 0.995 ± 0.079 | 1.07 ± 0.068
PSMA4 (UniProt P25789) | 0.999 ± 0.016 | 1.04 ± 0.062 | 1 ± 0.067 | 1.03 ± 0.14 | 1.04 ± 0.14 | 1.05 ± 0.17 | 1.02 ± 0.14 | 0.991 ± 0.14
DARS (UniProt P14868) | 1.06 ± 0.045 | 1.12 ± 0.14 | 1.01 ± 0.1 | 1.12 ± 0.21 | 1.09 ± 0.17 | 1.12 ± 0.22 | 1.06 ± 0.14 | 1.06 ± 0.17
UniProt P13674 and related entries | 0.9729 ± 0.0096 | 0.995 ± 0.043 | 0.999 ± 0.023 | 1.01 ± 0.05 | 1.01 ± 0.088 | 1.03 ± 0.034 | 1.06 ± 0.11 | 1.04 ± 0.057
UniProt P07355 and related entries | 0.921 ± 0.022 | 0.928 ± 0.037 | 0.887 ± 0.038 | 0.887 ± 0.04 | 0.843 ± 0.049 | 0.872 ± 0.048 | 0.822 ± 0.076 | 0.85 ± 0.055

A portion taken from the entries so far, for reference:
Target | NP40-soluble protein abundance (concentration: 0.1mM) | NP40-soluble protein abundance (concentration: 0.5mM) | NP40-soluble protein abundance (concentration: 1mM) | NP40-soluble protein abundance (concentration: 2mM) | NP40-soluble protein abundance (concentration: 4mM) | NP40-soluble protein abundance (concentration: 6mM) | NP40-soluble protein abundance (concentration: 8mM) | NP40-soluble protein abundance (concentration: 10mM)
UniProt P10244 and related entries | 1.11 ± 0.17 | 1.2 ± 0.14 | 1.24 ± 0.2 | 1.21 ± 0.013 | 1.24 ± 0.14 | 1.27 ± 0.24 | 1.36 ± 0.27 | 1.35 ± 0.22
P4HB (UniProt P07237) | 0.855 ± 0.1 | 0.976 ± 0.11 | 0.834 ± 0.08 | 0.923 ± 0.18 | 0.89 ± 0.17 | 0.795 ± 0.054 | 0.866 ± 0.054 | 0.775 ± 0.071
UniProt P26641 and related entries | 1.01 ± 0.046 | 1.08 ± 0.055 | 1.03 ± 0.06 | 1 ± 0.07 | 1 ± 0.045 | 1.03 ± 0.08 | 1.02 ± 0.082 | 0.969 ± 0.081
DBT (UniProt P11182) | 1.09 ± 0.071 | 1.16 ± 0.13 | 1.24 ± 0.14 | 1.39 ± 0.24 | 1.43 ± 0.24 | 1.36 ± 0.23 | 1.37 ± 0.31 | 1.35 ± 0.29
UniProt P23610 | 0.94 ± 0.011 | 0.906 ± 0.053 | 1.03 ± 0.055 | 1.05 ± 0.027 | 1.06 ± 0.04 | 1.04 ± 0.059 | 0.995 ± 0.079 | 1.07 ± 0.068
PSMA4 (UniProt P25789) | 0.999 ± 0.016 | 1.04 ± 0.062 | 1 ± 0.067 | 1.03 ± 0.14 | 1.04 ± 0.14 | 1.05 ± 0.17 | 1.02 ± 0.14 | 0.991 ± 0.14
DARS (UniProt P14868) | 1.06 ± 0.045 | 1.12 ± 0.14 | 1.01 ± 0.1 | 1.12 ± 0.21 | 1.09 ± 0.17 | 1.12 ± 0.22 | 1.06 ± 0.14 | 1.06 ± 0.17
UniProt P13674 and related entries | 0.9729 ± 0.0096 | 0.995 ± 0.043 | 0.999 ± 0.023 | 1.01 ± 0.05 | 1.01 ± 0.088 | 1.03 ± 0.034 | 1.06 ± 0.11 | 1.04 ± 0.057

Reference: the supplement of paper PMC6411743
